According to PubChem BioAssay AID504834 (National Center for Advancing Translational Sciences (NCATS), 2011):
The whole screen tested about 320,000 compounds, of which about 22,000 (6.9%) were called active. Inconclusive results, whose numbers are uncertain, are shown with a selection of clear calls. Calls come from the whole dose curve; as a rule, active = well fitted inhibition curve with a large enough effect; inconclusive = small, poorly fitted or top-dose-only effect, or another doubt; inactive = no such curve, though single readings can be large or run the other way. Potencies beside an inconclusive call are fits to weak or partial responses and may not hold up.

Assay: Primary qHTS for delayed death inhibitors of the malarial parasite plastid, 96 hour incubation
Conditions: P. falciparum luciferase reporter growth; series mostly up to 28.7 µM
Outline: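 P. falciparum expressing integrated firefly luciferase, in erythrocytes at 2% hematocrit, 0.05% parasitemia, incubated with compounds 96 h at 37 C, 5% CO2. Growth inhibition read as loss of luminescence; two-generation exposure targets delayed-death apicoplast inhibitors.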
Potency is the fitted concentration of half-maximal effect.

Q: Which Potency does the source give for `CCc1cccc(NS(=O)(=O)c2csc(C(N)=O)c2)c1` here?
A: The Potency was “inactive”.

Q: Which Potency does the source give for `CC(Sc1nnc2ccccn12)C(=O)Nc1ccc2c(c1)OCCO2` (configuration not stated) here?
A: Its Potency is “inactive”.

Q: With `CCOC(=O)N1CCC(NC(=O)c2cc(S(=O)(=O)NCCc3ccccc3)ccc2F)CC1` as the compound, how does the Potency read?
A: Its Potency is inconclusive: 20.8 µM [inhibitor, single point].

Q: For `Cc1cccc(N=c2c([N+](=O)[O-])nn(-c3ccc(Cl)cc3)n2O)c1`, which Potency is on record?
A: The Potency was “inactive”.

Q: With `Cc1ccc2sc(N(CCCN(C)C)C(=O)c3ccc(S(=O)(=O)N4CCCCCC4)cc3)nc2c1C` as the compound, how does the Potency read?
A: Its Potency is inconclusive: 9.28 µM [inhibitor, partial curve].

Q: Which Potency does the source give for `O=C(O)CC1SC(=Nc2ccccc2)N(c2ccccc2)C1=O` (configuration not stated) here?
A: The Potency was inconclusive: 3.7 µM [inhibitor, partial curve, poor fit].

Q: For `O=S(=O)(Nc1nnc(C2CC2)s1)c1ccccc1`, which Potency is on record?
A: The Potency was “inactive”.

Q: For `Cc1cc(NC(=O)Cc2cccs2)no1`, which Potency is on record?
A: Its Potency is inconclusive: 11.7 µM [inhibitor, single point].

Q: With `Cc1ccc(C)c(S(=O)(=O)N2CCC(c3nc4c(nnn4Cc4ccc5c(c4)OCCO5)c(=O)[nH]3)CC2)c1` as the compound, how does the Potency read?
A: Its Potency is “inactive”.

Q: Which Potency does the source give for `CCCCN(C(=O)NC(=O)Nc1ccccc1OC)S(C)(=O)=O` here?
A: Its Potency is inconclusive: 18.5 µM [inhibitor, single point].

Q: For `CC(=O)c1ccc2c(c1)N(CCCN(C)C)c1ccccc1S2`, which Potency is on record?
A: The Potency was inconclusive: 9.07 µM [inhibitor, single point].

Q: With `CCC(=O)Nc1ccc(S(=O)(=O)NCc2ccco2)cc1` as the compound, how does the Potency read?
A: Its Potency is inconclusive: 18.5 µM [inhibitor, single point].

Q: With `CC(=O)c1ccc(NC(=S)N2CC(C)CC(C)C2)cc1` (configuration not stated) as the compound, how does the Potency read?
A: Its Potency is inconclusive: 16.5 µM [inhibitor, single point].

Q: Which Potency does the source give for `C=Cn1cc[n+](CC(=O)c2cccs2)c1` here?
A: Its Potency is active: 6.57 µM.

Q: With `COc1cc(C)nc(N2CCC(C(=O)NC3CCCCC3)CC2)n1` as the compound, how does the Potency read?
A: Its Potency is “inactive”.

Q: With `CC(C)C(CCNC(=O)CC(Cc1ccccc1)c1ccco1)c1ccco1` (configuration not stated) as the compound, how does the Potency read?
A: The Potency was active: 13.1 µM.

Q: For `CCC(=O)Nc1cc(=O)[nH]c2ncnn12`, which Potency is on record?
A: Its Potency is “inactive”.

Q: Which Potency does the source give for `COC(=O)c1ccccc1NC(=O)Nc1ccc(Br)cn1` here?
A: The Potency was “inactive”.

Q: Which Potency does the source give for `COc1ccc(S(=O)(=O)N(CC(=O)NCc2ccco2)c2ccccc2)cc1OC` here?
A: The Potency was inconclusive: 11.7 µM [inhibitor, partial curve, poor fit].

Q: Which Potency does the source give for `Cc1cc(-n2c(C)cc(C(=O)COc3cc(F)ccc3[N+](=O)[O-])c2C)no1` here?
A: Its Potency is inconclusive: 10.4 µM [inhibitor, single point].

Q: Which Potency does the source give for `O=C(NC1CCCCCC1)c1ccc([N+](=O)[O-])s1` here?
A: The Potency was active: 9.28 µM.

Q: For `Cc1nc2ccccc2c(=O)n1/N=C/c1ccccc1`, which Potency is on record?
A: Its Potency is “inactive”.

Q: With `CC1CCN(C(=O)COC(=O)c2cc3ccccc3cc2O)CC1` as the compound, how does the Potency read?
A: The Potency was “inactive”.

Q: With `COCC(C)N=C1NN=C(c2ccc(NC(C)=O)cc2)CS1` (configuration not stated) as the compound, how does the Potency read?
A: Its Potency is “inactive”.

Q: Which Potency does the source give for `O=[N+]([O-])c1ccc(-c2ncc(-c3ccc(Br)cc3)o2)cc1` here?
A: Its Potency is “inactive”.

Q: Which Potency does the source give for `Cc1nc2cc(C(=O)N3CCC4(CC3)OCCO4)ccc2n1-c1cccc(F)c1` here?
A: The Potency was inconclusive: 5.22 µM [inhibitor, partial curve, poor fit].

Q: For `CCOc1cc(/C=C/c2ccc3cccc([N+](=O)[O-])c3n2)cc(Cl)c1O`, which Potency is on record?
A: Its Potency is inconclusive: 5.86 µM [inhibitor, partial curve].

Q: For `CC(NC(=O)COC(=O)c1ccc2ccccc2n1)C1CC2CCC1C2` (configuration not stated), which Potency is on record?
A: The Potency was inconclusive: 0.37 µM [inhibitor, partial curve, poor fit].

Q: Which Potency does the source give for `CCCn1c2ccccc2c2cnn(CC(=O)NC3CCCCC3C)c(=O)c21` (configuration not stated) here?
A: The Potency was inconclusive: 4.65 µM [inhibitor, single point].

Q: With `N#Cc1ccc(CSc2nnc(-c3ccccn3)n2-c2ccc(Cl)cc2)cc1` as the compound, how does the Potency read?
A: Its Potency is inconclusive: 1.31 µM [inhibitor, single point].

Q: With `COC(=O)C1=C(c2ccc(OCc3ccccc3)cc2)C[C@@H]2CC[C@H]1N2C(=O)NCc1ccc(OC)c(OC)c1` as the compound, how does the Potency read?
A: Its Potency is inconclusive: 2.94 µM [inhibitor, full curve, poor fit].

Q: For `Cn1ncc2c(=O)n(/N=C/c3ccccc3)cnc21`, which Potency is on record?
A: Its Potency is “inactive”.

Q: For `CC(=O)Nc1cccc(NC(=O)c2csc(C)c2)c1`, which Potency is on record?
A: Its Potency is inconclusive: 16.5 µM [inhibitor, partial curve, poor fit].

Q: For `COc1ccc(C(=O)CSc2nnc(-c3ccco3)n2CC2CCCO2)cc1` (configuration not stated), which Potency is on record?
A: The Potency was inconclusive: 0.0738 µM [inhibitor, full curve, poor fit].

Q: Which Potency does the source give for `CCOc1ccc2c(c1)C(C)=CC(C)(C)N2C(=O)Nc1ccccc1` here?
A: The Potency was active: 14.7 µM.

Q: With `COc1ccc2oc(C(=O)Nc3ccc(S(=O)(=O)N(C)C4CCN(C)CC4)cc3)c(C)c2c1` as the compound, how does the Potency read?
A: Its Potency is inconclusive: 2.62 µM [inhibitor, full curve, poor fit].

Q: Which Potency does the source give for `COc1ccccc1CNC(=O)/C=C/c1ccc(S(=O)(=O)N2CCOCC2)cc1` here?
A: Its Potency is active: 4.65 µM.

Q: Which Potency does the source give for `Cn1c(SCc2c(Cl)cccc2Cl)nc(C(F)(F)F)cc1=O` here?
A: The Potency was “inactive”.

Q: For `COCC(C)OC(=O)C(C#N)c1nc2ccccc2nc1N1CCN(Cc2ccccc2)CC1` (configuration not stated), which Potency is on record?
A: The Potency was inconclusive: 18.5 µM [inhibitor, single point].

Q: With `CCc1ccc2c(c1)C1(SC(NC(C)=O)=NN1C(C)=O)C(=O)N2CC` (configuration not stated) as the compound, how does the Potency read?
A: Its Potency is inconclusive: 11.7 µM [inhibitor, single point].

Q: Which Potency does the source give for `CC(=O)COc1ccc2c(C)c(C)c(=O)oc2c1` here?
A: The Potency was inconclusive: 0.0294 µM [inhibitor, full curve, poor fit].

Q: For `CC(NC(=O)c1ccc(CS(=O)(=O)Cc2ccccc2F)o1)c1ccc2c(c1)OCCO2` (configuration not stated), which Potency is on record?
A: Its Potency is inconclusive: 2.08 µM [inhibitor, single point].

Q: With `Cc1ccc(C)c(NC(=O)c2ccccc2NC(=O)C2CCCO2)c1` (configuration not stated) as the compound, how does the Potency read?
A: The Potency was inconclusive: 20.8 µM [inhibitor, single point].

Q: Which Potency does the source give for `CC(Sc1ncnc2sc(-c3ccccc3)cc12)C(N)=O` (configuration not stated) here?
A: The Potency was “inactive”.

Q: With `COc1ccc(C(c2nnnn2Cc2cccs2)N2CCN(c3ccccc3)CC2)cc1OC` (configuration not stated) as the compound, how does the Potency read?
A: Its Potency is inconclusive: 11.7 µM [inhibitor, single point].

Q: Which Potency does the source give for `Cc1ccc(OC(=O)CCN2C(=O)c3ccccc3C2=O)cc1C` here?
A: The Potency was “inactive”.

Q: For `Cc1ccc(S(=O)(=O)c2c(N)n(/N=C/c3ccco3)c3nc4ccccc4nc23)cc1`, which Potency is on record?
A: The Potency was inconclusive: 7.38 µM [inhibitor, partial curve].
